The experiment concerns the target FOXO1 (human) (UniProt Q12778). Nature of the experiment: co-IP; anti-FOXO1 or control IgG precipitated from pre-cleared total cell lysates in co-immunoprecipitation buffer at 4°C, Protein A/G beads, 5 washes; western blot with anti-ZEB2. (In general: Immunoblotting shows a protein as a band on a membrane.)

Protein sequences, listed by entry. Tags and fused reporters are not part of them.
UniProt Q12778: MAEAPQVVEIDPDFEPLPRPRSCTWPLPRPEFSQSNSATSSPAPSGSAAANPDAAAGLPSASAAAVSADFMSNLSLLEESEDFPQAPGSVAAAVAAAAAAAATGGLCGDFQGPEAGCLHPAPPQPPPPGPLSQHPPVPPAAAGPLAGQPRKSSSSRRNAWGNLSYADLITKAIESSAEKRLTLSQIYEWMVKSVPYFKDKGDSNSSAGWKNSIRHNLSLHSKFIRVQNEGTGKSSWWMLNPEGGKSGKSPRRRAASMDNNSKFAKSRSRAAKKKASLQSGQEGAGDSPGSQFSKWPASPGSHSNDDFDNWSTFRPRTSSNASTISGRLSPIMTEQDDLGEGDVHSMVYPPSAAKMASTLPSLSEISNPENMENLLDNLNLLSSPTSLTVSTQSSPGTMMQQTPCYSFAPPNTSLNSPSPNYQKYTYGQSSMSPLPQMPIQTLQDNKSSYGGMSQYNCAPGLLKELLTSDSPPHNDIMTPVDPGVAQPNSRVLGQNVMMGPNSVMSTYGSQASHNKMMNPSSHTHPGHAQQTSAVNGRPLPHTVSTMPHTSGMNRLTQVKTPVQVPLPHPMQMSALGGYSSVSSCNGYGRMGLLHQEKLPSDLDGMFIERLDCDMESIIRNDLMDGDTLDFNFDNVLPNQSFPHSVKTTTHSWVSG

Among the data in article PMC5352090 are binding values, retold here.

Results are given in words; binding and its absence hold for the method and conditions named. In cells and extracts the contact can be indirect. Some entries that bind do so weakly or less than the wild type.

B1: ZEB2 (protein, UniProt O60315 1-1214)
chain: MKQPIMADGPRCKRRKQANPRRKNVVNYDNVVDTGSETDEEDKLHIAEDDGIANPLDQETSPASVPNHESSPHVSQALLPREEEEDEIREGGVEHPWHNNEILQASVDGPEEMKEDYDTMGPEATIQTAINNGTVKNANCTSDFEEYFAKRKLEERDGHAVSIEEYLQRSDTAIIYPEAPEELSRLGTPEANGQEENDLPPGTPDAFAQLLTCPYCDRGYKRLTSLKEHIKYRHEKNEENFSCPLCSYTFAYRTQLERHMVTHKPGTDQHQMLTQGAGNRKFKCTECGKAFKYKHHLKEHLRIHSGEKPYECPNCKKRFSHSGSYSSHISSKKCIGLISVNGRMRNNIKTGSSPNSVSSSPTNSAITQLRNKLENGKPLSMSEQTGLLKIKTEPLDFNDYKVLMATHGFSGTSPFMNGGLGATSPLGVHPSAQSPMQHLGVGMEAPLLGFPTMNSNLSEVQKVLQIVDNTVSRQKMDCKAEEISKLKGYHMKDPCSQPEEQGVTSPNIPPVGLPVVSHNGATKSIIDYTLEKVNEAKACLQSLTTDSRRQISNIKKEKLRTLIDLVTDDKMIENHNISTPFSCQFCKESFPGPIPLHQHERYLCKMNEEIKAVLQPHENIVPNKAGVFVDNKALLLSSVLSEKGMTSPINPYKDHMSVLKAYYAMNMEPNSDELLKISIAVGLPQEFVKEWFEQRKVYQYSNSRSPSLERSSKPLAPNSNPPTKDSLLPRSPVKPMDSITSPSIAELHNSVTNCDPPLRLTKPSHFTNIKPVEKLDHSRSNTPSPLNLSSTSSKNSHSSSYTPNSFSSEELQAEPLDLSLPKQMKEPKSIIATKNKTKASSISLDHNSVSSSSENSDEPLNLTFIKKEFSNSNNLDNKSTNPVFSMNPFSAKPLYTALPPQSAFPPATFMPPVQTSIPGLRPYPGLDQMSFLPHMAYTYPTGAATFADMQQRRKYQRKQGFQGELLDGAQDYMSGLDDMTDSDSCLSRKKIKKTESGMYACDLCDKTFQKSSSLLRHKYEHTGKRPHQCQICKKAFKHKHHLIEHSRLHSGEKPYQCDKCGKRFSHSGSYSQHMNHRYSYCKREAEEREAAEREAREKGHLEPTELLMNRAYLQSITPQGYSDSEERESMPRDGESEKEHEKEGEDGYGKLGRQDGDEEFEEEEEESENKSMDTDPETIRDEEETGDHSMDDSSEDGKMETKSDHEEDNMEDGM
As for B1, the binding result is given as “binds”.
